Columns and labels:
[1] = tested on: NFκB; experiment: NFκB inhibition assay (24 h), NFκB-dependent firefly luciferase reporter; format: cell-based, human; conditions: 24 h vs 2 h
Description: On day 1, 3 × 10^4 NFκB MDA-MB-231-firefly cells were seeded into white 96 well plates (Greiner; #655098). On day 2, the medium was replaced with starvation medium and the cells were pre-incubated for 20 min with either 100 µL of DMSO (Roth; #A994.1) alone at maximal 0.1%, or with the final concentration of the diluted compounds (Table 3). To activate NFκB signaling, cells were stimulated with 20 ng/mL TNFα (Peprotech, Hamburg, Germany; #300-01A). Cell lysis was performed in 20 µL 1× cell lysis buffer according to the manufacturer’s instruction for the Luciferase Assay System (Promega #E1500). NFκB-dependent luminescence was determined as relative light units (RLU) using the microplate reader Spark® (Tecan).

[2] = tested on: MDA-MB-231; experiment: 2D cell viability (PrestoBlue resazurin) in MDA-MB-231; format: cell-based, human; conditions: viability IC50 24 h vs NFκB IC50 24 h
Description: Cell viability was determined based on resazurin-reduction in viable cells according to the PrestoBlue^TM Assay. On day 1, MDA-MB-231 (1.5 × 10^4 cells per well or 7.5 × 10^3 cells per well) were seeded into black 96 well plates (Greiner; #655090) in a total volume of 100 µL. On day 2, the compounds or DMSO (Roth; #A994.1) alone at maximal 0.1% were applied (final concentrations after serial dilution shown in Table 3). An amount of 20 µM staurosporine (Sigma-Aldrich; #S5921) served as a positive control. On day 3, the PrestoBlue^TM reagent (Invitrogen^TM, Darmstadt, Germany; #A13262) was applied according to the manufacturer`s instructions. Finally, cell viability-dependent fluorescence was recorded in relative fluorescence units (RFU) with excitation/emission (Exλ/Emλ) at 535/590 nm or 560/590 nm, using the microplate reader Spark® (Tecan).

[3] = tested on: NFκB; experiment: NFκB inhibition assay (2 h), NFκB-dependent nanoluc luciferase reporter; format: cell-based, human; conditions: vs compound (1)
Description: Experiments were performed according to the published protocol. On day 1, 4 × 10^4 NFκB-MDA-MB-231-nanoluc cells were seeded into white 96 well plates (Greiner; #655098). On day 2, the medium was replaced with starvation medium and the cells were pre-incubated for 20 min with either 100 µL of DMSO (Roth; #A994.1) alone at a concentration of maximal 0.1% or with the final concentration of the diluted compounds (Table 3). To activate NFκB signaling, cells were stimulated with 1 µg/mL LPS (Sigma-Aldrich; #L2630) beforehand. NFκB-dependent luciferase activity was measured according to the manufacturer`s protocol for the Nano-Glo Luciferase Assay System (Promega, Mannheim, Germany; #N1110). NFκB-dependent luminescence was determined as relative light units (RLU) using the microplate reader Spark® (Tecan, Männedorf, Switzerland).

[4] = tested on: 3D co-culture spheroids of MDA-MB-231 and primary murine CAFs; experiment: 3D cell viability (ATP content) in TNBC co-culture spheroids; format: cell-based, human MDA-MB-231; conditions: 3D vs 2D
Description: On day 1, 3000 cells were seeded into a low-attachment 96 well plate (Greiner; #650970). […] Cell viability was determined based on the ATP content in viable cells according to the manufacturer`s instructions (Promega #G9682). Co-culture spheroids were generated for 72 h before they were grown for another 72 h with or without exposure to the compounds. […] Cell viability-dependent luminescence was determined as relative light units (RLU) using the microplate reader Spark® (Tecan).

Row | SMILES | fold decrease of NFκB IC50 at 24 h versus 2 h [1] [fold] | fold higher concentration for reduction of cell viability compared to NFκB blockade after 24 h [2] | factor of decreased NFκB blockade within 2 h compared to compound (1) [3] | fold higher IC50 in 3D co-culture model compared to 2D [4]
1 | COc1ccc2c3c(c4cc(OC)c(OC)cc4c2c1)CN1CCCC1C3O (stereo not shown) [Compound (1), O-methyltylophorinidine] | 5 | about 4 fold |  | 
2 | COc1ccc2c3c(c4cc(OC)c(O)cc4c2c1)CN1CCC[C@H]1[C@H]3O [Compound (2), tylophorinidine] | 5.5 | 2 fold | 12 | at least 4 fold
3 | COc1cc2c3c(c4ccc(O)cc4c2cc1OC)[C@H](O)[C@@H]1CCCN1C3 [Compound (3), tylophoridicine E] | 2.5 |  | 17 | at least 4 fold
4 | COc1ccc2c3c(c4cc(OC)c(OC)cc4c2c1)CN1CCC[C@H]1C3 [Compound (4), 2-demethoxytylophorine] | 3 | about 4 fold | 5 | at least 4 fold

— paper PMC9499467, “Phenanthroindolizidine Alkaloids Isolated from Tylophora ovata as Potent Inhibitors of Inflammation, Spheroid Growth, and Invasion of Triple-Negative Breast Cancer” (International Journal of Molecular Sciences, 2022)
